PubChem BioAssay AID540256 (National Center for Advancing Translational Sciences (NCATS), 2011)
The campaign covered roughly 300,000 compounds. About 3,700 (1.2%) were called active. Inconclusive means that the source gave no clear call. Such entries were picked first, then a sample of the others. Calls come from the whole dose curve; tested in HEK293 cells. A potency beside an inconclusive call is a rough fit, not a confirmed value.
% is set by controls: 0 for no effect and ±100 for the full control effect; potency is the fitted concentration of half-maximal effect.

Experiment: qHTS for Inhibitors of binding or entry into cells for Lassa Virus; note: nearly all actives have a fitted effect of over 50% in size
Settings: Lassa virus pseudotype entry inhibition, cell reporter; activity change, negative = inhibition: at 37.9 µM (top of the series) unless noted
For COc1cc(SC)ccc1C(=O)Nc1ccc(C)cc1C, the Potency was inconclusive: 1.84 µM [activator, partial curve, poor fit]. With Nc1c(C(=O)N2CCCC2)sc2nc3c(cc12)CCCCCC3 the Potency was inconclusive: 35.5 µM [activator, single point]. In the case of Cc1cc(F)ccc1S(=O)(=O)Nc1ccc2c(c1)CCCN2C(=O)c1cccs1, the Potency was inconclusive: 17.8 µM [inhibitor, single point]. For Cc1ccc(Nc2c(N)c(=O)oc3ccccc23)cc1, the Potency was inconclusive: 0.231 µM [inhibitor, single point]. For COc1cccc(CNc2ccc(F)c(Cl)c2)c1OC, the Potency was inconclusive: 1.16 µM [activator, full curve]. With CN(C(=O)COC(=O)c1cnc(Cl)c(Cl)c1)C1CCCCC1 the Potency was inconclusive: 35.5 µM [inhibitor, single point]. For CN(CC(=O)O)S(=O)(=O)c1cccs1, the “activity change, negative = inhibition” value was inactive: 13.1%. With Cc1ccc(-n2ncc3c(NCCCn4ccnc4)ncnc32)cc1Cl the Potency was inconclusive: 8.91 µM [activator, partial curve, poor fit]. With O=C(CNc1cccc(S(=O)(=O)N2CCOCC2)c1)Nc1ccccc1F the Potency was inconclusive: 35.5 µM [activator, partial curve, poor fit]. For CCOc1ccccc1C(=O)N[C@H](C(=O)OCC(=O)Nc1nnc(-c2ccccc2)o1)C(C)C, the “activity change, negative = inhibition” value was inactive: 4.72% [at 46.1 µM]. In the case of Cc1ccc(N2CCN(C(=O)c3cc(-c4ccc(F)cc4)[nH]c3C)CC2C)cc1 (stereo not drawn), the Potency was inconclusive: 11.2 µM [inhibitor, partial curve]. In the case of COc1ccc(CC(=O)NCC(c2ccc(N(C)C)cc2)N2CCOCC2)cc1 (stereo not drawn), the Potency was inconclusive: 3.16 µM [activator, single point]. With COC(=O)Nc1nc2ccc(Oc3ccc(NC(=O)Nc4cccc(C(=O)O)c4)cc3)cc2[nH]1 the Potency was inconclusive: 3.97 µM [inhibitor, partial curve, poor fit]. In the case of Cn1c(=O)[nH]c(=O)c2c1nc(N1CCCCC1)n2CCCSc1nc2ccccc2s1, the Potency was inconclusive: 22.4 µM [inhibitor, single point]. In the case of Cc1ccc(Cl)cc1N1CCN(C(=O)c2cc(S(=O)(=O)N3CCCC3)cn2C)CC1, the “activity change, negative = inhibition” value was inactive: -16.4% [at 46.1 µM]. For CC(C)c1ccc(NC(=O)NC2CCN(CC(=O)Nc3cccc4ccccc34)CC2)cc1, the Potency was inconclusive: 35.5 µM [inhibitor, single point]. In the case of CCN(CC(=O)Nc1ccccc1OC)C(=O)COc1ccc(C#N)cc1, the Potency was inconclusive: 2.51 µM [inhibitor, full curve]. For Cc1ccc(-c2nc3nc4ccccc4nc3n2Cc2ccco2)cc1, the Potency was inconclusive: 35.5 µM [inhibitor, single point]. With C=CCN1C(=O)c2ccc(C(=O)NCC(c3ccccc3)N(C)C)cc2C1=O (stereo not drawn) the Potency was inconclusive: 3.55 µM [inhibitor, single point]. In the case of Nc1ccc2oc(-c3ccc4nc[nH]c4c3)nc2c1, the Potency was active: 16.4 µM. With COc1ccc(NC(=O)COC(=O)c2ccc(S(=O)(=O)N(C)c3ccccc3OC)cc2)cc1OC the “activity change, negative = inhibition” value was inactive: -1.12%. In the case of Cc1cccc(NC(=O)CN2CCc3cc4c(cc3C2)OCCCO4)c1, the Potency was inconclusive: 6.31 µM [inhibitor, full curve, poor fit]. With CCOC(=O)C1=C(C)NC(C)=C(C(=O)OCC)C1c1cc2ccc(C)cc2[nH]c1=O the Potency was inconclusive: 17.8 µM [inhibitor, partial curve, poor fit]. With CC(=C\c1ccco1)/C=C1/SC(=S)N(CC(=O)O)C1=O the Potency was inconclusive: 31.6 µM [activator, single point]. With CCOc1cc(S(=O)(=O)N2CCC(c3nc4ccccc4s3)CC2)c(OCC)cc1S(=O)(=O)N1CCCCC1 the Potency was inconclusive: 3.66 µM [inhibitor, partial curve, poor fit]. In the case of CCCC(=O)Nc1cc(C)c(NC(=O)c2ccccn2)cn1, the “activity change, negative = inhibition” value was inactive: 24.2%. With Cc1oc(-c2ccc(Cl)cc2)nc1CN1CCC(C(=O)NCCCN2CCN(c3cccc(Cl)c3)CC2)CC1 the Potency was inconclusive: 35.5 µM [inhibitor, single point]. In the case of COc1ccc(C(O)Cn2ccsc2=NC(C)=O)cc1 (stereo not drawn), the Potency was inconclusive: 8.91 µM [inhibitor, partial curve, poor fit]. In the case of CC(=O)c1cc(C(C)=O)c(C)[n+](C)c1C, the “activity change, negative = inhibition” value was inactive: 14%. For CCC(Cc1ccccc1)NC(=O)Cn1ncc2c3ccccc3n(Cc3ccccc3)c2c1=O (stereo not drawn), the Potency was inconclusive: 35.5 µM [inhibitor, single point]. With O=C(/C=C/c1ccccc1)Nc1cccc(S(=O)(=O)Nc2ccccc2F)c1 the Potency was inconclusive: 28.2 µM [inhibitor, single point]. With Cc1ccc(Nc2nnc(-c3ccc(C)c(S(=O)(=O)N4CCOCC4)c3)c3ccccc23)c(C)c1 the Potency was inconclusive: 22.4 µM [inhibitor, partial curve, poor fit]. In the case of COc1ccc(-c2cc(C#N)nc(N3CCN(C)CC3)n2)cc1, the “activity change, negative = inhibition” value was inactive: 14.1%. In the case of Cc1ccc(C(=O)NCCCC(=O)O)o1, the “activity change, negative = inhibition” value was inactive: 0.092%. For O=[N+]([O-])c1ccc2c(c1)nc1n2CCCCC1, the Potency was inconclusive: 35.5 µM [inhibitor, single point]. In the case of CCCCNC(=O)CC1N=C2c3ccccc3N=C(SCC(=O)Nc3cccc(OC)c3)N2C1=O (stereo not drawn), the “activity change, negative = inhibition” value was inactive: 0.446%. For CCOC(=O)C1=C(CCl)NC(=O)N(C(C)=O)C1c1ccccc1 (stereo not drawn), the Potency was inconclusive: 0.106 µM [inhibitor, partial curve, poor fit]. With COC(=O)c1ccccc1CCC(C)=O the Potency was inconclusive: 35.5 µM [inhibitor, partial curve, poor fit]. In the case of COC(=O)c1ccc(OCC2c3cc(OC)c(OC)cc3CCN2C(=O)C(C)C)cc1 (stereo not drawn), the “activity change, negative = inhibition” value was inactive: 9.12% [at 46.1 µM]. In the case of COc1ccc(NC(=O)c2cccc(Oc3ccccc3)c2)cn1, the Potency was inconclusive: 11.2 µM [inhibitor, partial curve, poor fit]. In the case of FC(F)(F)CNc1nccc(-c2cnn3ncccc23)n1, the Potency was inconclusive: 31.5 µM [inhibitor, single point]. With COc1ccc(N2CC(C(=O)NC3CCCCC3)CC2=O)cc1 (stereo not drawn) the “activity change, negative = inhibition” value was inactive: 16.5%. With O=C(COc1ccccc1)NC(=S)Nc1cccc(NC(=O)c2ccccc2Cl)c1 the “activity change, negative = inhibition” value was inactive: 14.5%. In the case of CCc1c(C)[nH]c2ccccc2c1=O, the “activity change, negative = inhibition” value was inactive: 0.377%. With C/C(=N\NC(=O)CC1N=C(Cc2ccccc2)NNC1=O)c1ccc(C)cc1 (stereo not drawn) the Potency was inconclusive: 29.1 µM [inhibitor, single point]. With COc1cc(NC(=O)CN2C(=O)COc3ccc(S(=O)(=O)N4CCCCC4)cc32)cc(OC)c1 the Potency was “inactive”. For COC(=O)c1ccccc1NC(=O)c1cnc2sccn2c1=O, the Potency was inconclusive: 6.51 µM [activator, single point]. In the case of CCc1cccc(N2C(=O)N(CC(=O)NCc3cccc(OC)c3OC)c3ccccc3S2(=O)=O)c1, the Potency was inconclusive: 6.31 µM [inhibitor, partial curve]. With CC(=O)N(Cc1ccc(F)cc1)C1=C(NCCc2ccccc2)C(=O)c2ccccc2C1=O the Potency was active: 7.08 µM. With CC(C)CN(Cc1c(O)ccc2ccccc12)CC(C)C the “activity change, negative = inhibition” value was inactive: 0.334%. With CC(=O)Nc1ccc(NC(=O)C(C)OC(=O)[C@@H]2CCCN2C(=O)c2cccs2)cc1 (stereo partly drawn) the Potency was inconclusive: 1.26 µM [inhibitor, single point]. With Cc1ccc(C)c(CN2C(=O)c3ccccc3S(=O)(=O)c3ccc(C(=O)N4CCN(c5ccccn5)CC4)cc32)c1 the Potency was inconclusive: 3.55 µM [inhibitor, full curve]. For COc1ccc(Cc2nc3ccccc3[nH]2)cc1OC, the Potency was inconclusive: 39.8 µM [inhibitor, single point]. For COc1ccc(C(=O)NCCc2sc(-c3ccc(Cl)cc3)nc2C)c(OC)c1, the “activity change, negative = inhibition” value was inactive: 13% [at 46.1 µM]. With CCOC(=O)c1cnc2cc(-c3ccc(C)cc3)nn2c1-c1ccccc1 the Potency was inconclusive: 35.5 µM [inhibitor, single point]. With COc1ccc(C)cc1NC(=O)CSc1nc(=O)n(Cc2ccncc2)c2c1CCC2 the “activity change, negative = inhibition” value was inactive: 4.88% [at 46.1 µM]. In the case of O=C1c2cc(F)ccc2-n2c1nc1ccccc1c2=O, the Potency was inconclusive: 2.24 µM [inhibitor, partial curve, poor fit]. For COc1ccc(C)cc1NC(=O)NCc1ccc2c(c1)CCN2C(=O)c1ccccc1, the Potency was inconclusive: 25.1 µM [inhibitor, single point]. With Cc1nnc(NC(=O)Cc2ccc(OCc3c(C)noc3C)cc2)s1 the Potency was inconclusive: 0.82 µM [inhibitor, full curve, poor fit]. With Cc1cccc(NC(=O)CCCCCN2C(=O)c3ccccc3C2=O)n1 the “activity change, negative = inhibition” value was inactive: 1.97%. With CCn1c(=O)cc(SCC(=O)NCCc2cc(OC)ccc2OC)c2ccccc21 the “activity change, negative = inhibition” value was inactive: -7.14% [at 46.1 µM]. With Cc1ccc(S(=O)(=O)c2nc(S(C)(=O)=O)sc2N2CCC(C(N)=O)CC2)cc1 the “activity change, negative = inhibition” value was inactive: 16.3% [at 46.1 µM]. With COc1ccc(OC)c(CCNC(=O)c2c(C)nn(-c3ccc(F)cc3)c2-n2cccc2)c1 the Potency was inconclusive: 3.98 µM [inhibitor, partial curve, poor fit]. In the case of COc1ccc(Cn2nnc(C(=O)Nc3cc(OC)ccc3OC)c2N)cc1, the “activity change, negative = inhibition” value was inactive: 11.4% [at 46.1 µM]. For CC(=O)NS(=O)(=O)c1ccc(NC(=S)NC(=O)C2CCC2)cc1, the Potency was inconclusive: 35.5 µM [activator, partial curve, poor fit]. With Cc1ccc(NC(=O)Cn2c(=O)n(Cc3ccco3)c(=O)c3ccc(C(=O)NC4CCCC4)cc32)c(C)c1 the Potency was inconclusive: 3.16 µM [inhibitor, single point]. In the case of CCCCCC(=O)N1C[C@@H](O)[C@H](n2cc(-c3ccc(F)cc3)nn2)C[C@H]1c1ccc(OC)cc1, the “activity change, negative = inhibition” value was inactive: 10.8% [at 46.1 µM]. For CCOc1ccc(C(=O)NCC(c2ccc3c(c2)OCO3)N2CCN(c3ccccc3F)CC2)cc1 (stereo not drawn), the Potency was inconclusive: 2.82 µM [inhibitor, full curve, poor fit].
